Test results reported in article doi:10.1101/2021.11.05.467508.
Read-outs that look alike come from different tables or passages of the source. These are yes or no findings as the source states them, for the method shown. A result given as binding can be weak or reduced; the word gives no strength. For part of these data: In cells and extracts the contact can be indirect.

Chains of the proteins cited; added tags and fusions are not shown. Lines headed by an entry give the natural chain unless they say otherwise; changes in a name come on top.
UniProt B8ARK7: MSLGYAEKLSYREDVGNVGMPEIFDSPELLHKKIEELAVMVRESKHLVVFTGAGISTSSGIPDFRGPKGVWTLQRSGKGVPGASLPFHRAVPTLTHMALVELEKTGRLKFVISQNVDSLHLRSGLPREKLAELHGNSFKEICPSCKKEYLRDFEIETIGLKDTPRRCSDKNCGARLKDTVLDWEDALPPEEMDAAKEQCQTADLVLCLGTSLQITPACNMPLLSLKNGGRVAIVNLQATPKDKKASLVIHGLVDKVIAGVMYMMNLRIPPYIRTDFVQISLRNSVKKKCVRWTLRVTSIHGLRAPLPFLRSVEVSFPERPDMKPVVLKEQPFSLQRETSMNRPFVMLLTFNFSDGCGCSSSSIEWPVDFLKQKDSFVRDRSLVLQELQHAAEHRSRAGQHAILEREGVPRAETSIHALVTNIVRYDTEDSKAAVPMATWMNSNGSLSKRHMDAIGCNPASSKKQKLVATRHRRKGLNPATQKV
UniProt P09874: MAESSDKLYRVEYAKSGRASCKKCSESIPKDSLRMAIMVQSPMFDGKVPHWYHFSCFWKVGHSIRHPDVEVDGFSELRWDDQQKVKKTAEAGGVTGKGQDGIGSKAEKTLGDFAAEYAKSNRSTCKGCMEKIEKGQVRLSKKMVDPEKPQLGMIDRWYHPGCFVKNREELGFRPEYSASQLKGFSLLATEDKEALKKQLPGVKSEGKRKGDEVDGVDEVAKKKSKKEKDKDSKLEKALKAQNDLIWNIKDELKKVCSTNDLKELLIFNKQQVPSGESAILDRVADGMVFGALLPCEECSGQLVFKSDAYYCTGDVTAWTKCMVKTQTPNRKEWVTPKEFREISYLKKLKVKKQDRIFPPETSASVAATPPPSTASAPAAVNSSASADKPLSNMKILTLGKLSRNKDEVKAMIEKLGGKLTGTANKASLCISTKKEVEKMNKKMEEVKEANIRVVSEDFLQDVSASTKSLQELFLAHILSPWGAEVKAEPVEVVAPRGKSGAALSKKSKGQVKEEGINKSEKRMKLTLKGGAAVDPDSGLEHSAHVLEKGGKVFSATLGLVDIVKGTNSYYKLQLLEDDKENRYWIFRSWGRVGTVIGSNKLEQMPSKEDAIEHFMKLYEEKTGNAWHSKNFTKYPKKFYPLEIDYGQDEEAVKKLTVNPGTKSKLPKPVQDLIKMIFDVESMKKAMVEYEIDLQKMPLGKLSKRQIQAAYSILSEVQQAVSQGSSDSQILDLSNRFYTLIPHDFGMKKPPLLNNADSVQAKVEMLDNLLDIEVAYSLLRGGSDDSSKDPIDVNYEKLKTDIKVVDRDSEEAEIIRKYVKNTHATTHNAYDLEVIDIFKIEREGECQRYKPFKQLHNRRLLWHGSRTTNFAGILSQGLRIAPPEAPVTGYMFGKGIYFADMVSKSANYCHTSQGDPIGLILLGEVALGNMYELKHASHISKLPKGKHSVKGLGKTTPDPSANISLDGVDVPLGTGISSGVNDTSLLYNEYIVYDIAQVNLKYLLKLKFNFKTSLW

What was measured:
Assay in all cases: pull-down
[1] = target: OsSRT1 C terminus with CC region (ΔN1: 45-483) (Oryza sativa indica) (UniProt B8ARK7)
[2] = target: OsSRT1 catalytic core region (CC: 45-255) (Oryza sativa indica) (UniProt B8ARK7)
[3] = target: OsSRT1 N-terminus alone (ΔC2: 1-45) (Oryza sativa indica) (UniProt B8ARK7)
[4] = target: His-OsSRT1 (FL), full length rice sirtuin OsSRT1 (Oryza sativa indica) (UniProt B8ARK7)
[5] = target: His-OsSRT1 (FL), full length rice sirtuin OsSRT1 (Oryza sativa indica) (UniProt B8ARK7); remark: listed apart in the source

binding [1] | binding [2] | binding [3] | binding [4] | binding [5] | Molecule
binds | binds | binds weakly | binds |  | recombinant PARP1 (rPARP1, ab123834) (from UniProt P09874 1-1014) (enzyme)
 |  |  |  | binds | Ku70 from nuclear extract of rice leaves (protein, UniProt Q7F1M0 1-624) MDLDPEGLFRDDSDEDDDNVQEREANKEMVVYLIDASPKMFTPATKADEKEETHFHTIVNCITHALKTQIIGRSYDEVAICFFNTKEKKNLQELAGVYVYNVTEREPLDRPDARLIKEFSCIEDSFMSNIGSRYGITSGSRENTLYNALWVAQALLRKGSVKTVSKRIVIFTNEDDPFGGLTGAVKTDMIRTTIQRARDAQDLGLSIELLPLSRPDEEFNMSLFYADLIGLEGDEIVDYLPSSGEKLEDMTNQLKKRMMKKRKVKTLAFAITNDVCIEVNTYALIRSTTPGAITWLDSISNLPLKAERSFICNDTGALIQDPQKRFQVYNDKIVKFSTRELSDVKRVSSHHLRLLGFKPLDYLKDYHNLRPSTFIYPSDEQIFGSTRVFVALHSSMRRLGRFALAFYGNPTRPQLVALIAQEEVTSAGGQIEPPGIHMIYLPYSDDVRYPEEVHLTSDDAPRATDEQIKKASNLLRRIDLKNFSVCQFSNPALQRHYGILEALALGEDEMPDVKDETLPDEEGLARPVVVKAVEEFKASVYGENYDQEEAEAAAAKAGASKKRKALTDAAAEKSAAHNWAELADTGKLKDMTVVDLKSYLSAHGLPVSGKKEALVSRILTHLGK
 |  |  |  | binds | Ku80 from nuclear extract of rice leaves (protein, UniProt Q75IP6 1-688) MARNKEALVLLLDVGPSMHGVLQEVENICSTLVHKKLVYNRSDEIGVVLFGTKETSNELAKELGGYKHVVVARDIKVVDEETTNALQNLPRGTSPGDFLDAIVVGLDMLIRKFGNIKGKQRMCLVTDAQHPLRDPPQGTKKDQVDTIADQMKRHEIKMDCIIFRESGVRHNAVMDENDQLLYHFRERSVTKVVHVDSPTSLLGALRTRNVLPVTVFRGDLEVSSSFKIKVWVYKKTSEEKFPTLKKYSDKAPASDKFASHEVKVDYEYKSVLEPDTVVPPDQRIKGYLYGPQVVPISSAEWEAVKFKPEKGVKLLGFTDRSSISRHYFMKDVFSFVPEPGNTKAVAAVSALARAMSEMNKVAILRCVWRQGQGNVALGVLTPNISSAKNVLDSFYFNILPFAEDIREFQFRSFSSLPSSSQPTKEQQEAADNLVKMLDLAPPGREEILKPDFTPNPMLERFYRYLDLKSKQPDANVPPLDKCLKKITEPDPDVIDYQAPLIKKLGNVFELKENPKKKKARTQDRLTYTGADDQAKLLEEPSAEKVGVSEALYPPKKKAGEIGDHNPVQDFEAMLTQRSSSTWVQTAIEEMQKYITALIQDSCDRDNHQKALECLVALRKACIIEQEPNEYNGFVTKLCQKFRPAGDKIFLQLLSSKKASLISKEEAPDSDVTEEMARNFCLKPEPSSQ
